The supplement of paper PMC11006884
The list shows a part of the results, in another mix than the full data. Single values of this set are uncertain.

These targets were tested with COC(=O)/C=C/c1ccccc1 [methyl cinnamate] (assay: log2 ratio of iodoacetamide-alkyne labeling of the cysteine site, DMSO over compound (competition); higher = stronger covalent engagement of the cysteine by the compound, active = 1 or more). Conditions: 500 µM; treatment time 1 h; system: HEK293T cell lysate.
Method in brief: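 HEK293T lysate (2 mg/mL) was incubated with electrophile (500 µM) or vehicle for 1 h at ambient temperature and then with iodoacetamide alkyne for 1 h. Labelled proteins were clicked to sCIP-TMT reagents, pooled, digested, enriched on streptavidin and measured by Orbitrap Eclipse LC-MS/MS with FAIMS, with FragPipe quantification. The per-cysteine log2 competition ratio is mean control-channel reporter intensity over mean compound-channel reporter intensity. Across three replicates with duplicate channels, cysteines quantified in only one replicate were excluded.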

log2 ratio of iodoacetamide-alkyne labeling, inactive:
APEX1 C310 (UniProt P27695) -0.163
CHML C582 (UniProt P26374) 0.0276
DDX5 C234 (UniProt P17844) 0.163
CAD C1636 (UniProt P27708) 0.242
GART C237 (UniProt P22102) 0.261
ANXA7 C285 (UniProt P20073) 0.311
UniProt P25098_C340 0.0566
OSBP C224 (UniProt P22059) 0.012
PSMC3 C387 (UniProt P17980) 0.0271
VARS C663 (UniProt P26640) 0.0316
UniProt P19784_C336 0.294
DNMT1 C1478 (UniProt P26358) 0.242
ECHS1 C62 (UniProt P30084) 0.178
FLNA C1157 (UniProt P21333) 0.369
FLNA C717 (UniProt P21333) 0.0726

Reprinted at random: 2 records from the list
log2 ratio of iodoacetamide-alkyne labeling, inactive:
UniProt P19784_C336 0.294
GART C237 (UniProt P22102) 0.261
